± gives the standard deviation of the averaged measurements. This is a selection; strong and weak results do not stand in their true shares.
Compound: Nc1ncnc2c1ncn2[C@@H]1O[C@H](COP(=O)(O)OP(=O)(O)NP(=O)(O)O)[C@@H](O)[C@H]1O [adenylyl imidodiphosphate]
Test: NP40-soluble protein abundance relative to vehicle (solubility fold change) (ratio); higher = more soluble protein in presence of AMP-PNP
Method in brief: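 Crude Jurkat lysate, prepared by Dounce homogenisation, was exposed to eight concentrations from 0.1 to 10 mM for 10 min at room temperature and then 3 min at 37 °C. Solubilisation used 0.8% NP40 with benzonase for 60 min at 4 °C, followed by ultracentrifugation and TMT labelling of the supernatant for LC-MS/MS. After vsn normalisation of intensities, each value is the fold change against the detergent-processed vehicle within each replicate, across three independent experiments.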

By UniProt entry, the sequences of proteins in these tests, tags left out. Where a name states a change or a piece, a line headed by the entry shows the natural chain unless it says otherwise.
UniProt Q00722, whole entry: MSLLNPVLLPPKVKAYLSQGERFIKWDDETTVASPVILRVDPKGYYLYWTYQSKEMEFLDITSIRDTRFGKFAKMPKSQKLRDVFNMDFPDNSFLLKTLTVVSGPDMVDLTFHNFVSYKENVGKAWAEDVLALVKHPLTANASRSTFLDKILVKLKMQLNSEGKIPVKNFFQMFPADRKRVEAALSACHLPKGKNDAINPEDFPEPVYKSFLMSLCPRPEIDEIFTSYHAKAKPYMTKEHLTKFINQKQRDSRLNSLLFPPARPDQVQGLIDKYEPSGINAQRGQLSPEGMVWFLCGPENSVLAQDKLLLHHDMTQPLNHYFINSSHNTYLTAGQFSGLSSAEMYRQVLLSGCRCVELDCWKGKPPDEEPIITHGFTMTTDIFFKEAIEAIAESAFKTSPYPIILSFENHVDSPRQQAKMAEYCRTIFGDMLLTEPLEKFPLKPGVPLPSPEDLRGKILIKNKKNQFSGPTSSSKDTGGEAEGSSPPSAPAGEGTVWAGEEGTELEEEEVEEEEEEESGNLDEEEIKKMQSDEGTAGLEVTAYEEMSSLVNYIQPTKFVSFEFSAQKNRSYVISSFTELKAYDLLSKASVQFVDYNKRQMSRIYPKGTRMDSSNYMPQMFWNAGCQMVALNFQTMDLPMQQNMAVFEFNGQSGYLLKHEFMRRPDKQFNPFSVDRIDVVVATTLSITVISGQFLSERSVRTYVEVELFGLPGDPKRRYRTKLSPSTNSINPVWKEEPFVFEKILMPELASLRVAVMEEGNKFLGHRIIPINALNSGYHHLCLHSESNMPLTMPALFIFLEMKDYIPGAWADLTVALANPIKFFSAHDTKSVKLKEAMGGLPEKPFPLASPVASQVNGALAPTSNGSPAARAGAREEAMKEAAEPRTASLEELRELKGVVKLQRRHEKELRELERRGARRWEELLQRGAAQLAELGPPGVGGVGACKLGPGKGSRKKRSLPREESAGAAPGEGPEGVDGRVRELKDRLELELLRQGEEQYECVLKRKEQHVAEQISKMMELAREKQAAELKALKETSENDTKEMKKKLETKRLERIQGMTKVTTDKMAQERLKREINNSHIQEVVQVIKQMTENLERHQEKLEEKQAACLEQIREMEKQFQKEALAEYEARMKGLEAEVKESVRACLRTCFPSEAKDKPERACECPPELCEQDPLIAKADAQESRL
UniProt Q96PN7: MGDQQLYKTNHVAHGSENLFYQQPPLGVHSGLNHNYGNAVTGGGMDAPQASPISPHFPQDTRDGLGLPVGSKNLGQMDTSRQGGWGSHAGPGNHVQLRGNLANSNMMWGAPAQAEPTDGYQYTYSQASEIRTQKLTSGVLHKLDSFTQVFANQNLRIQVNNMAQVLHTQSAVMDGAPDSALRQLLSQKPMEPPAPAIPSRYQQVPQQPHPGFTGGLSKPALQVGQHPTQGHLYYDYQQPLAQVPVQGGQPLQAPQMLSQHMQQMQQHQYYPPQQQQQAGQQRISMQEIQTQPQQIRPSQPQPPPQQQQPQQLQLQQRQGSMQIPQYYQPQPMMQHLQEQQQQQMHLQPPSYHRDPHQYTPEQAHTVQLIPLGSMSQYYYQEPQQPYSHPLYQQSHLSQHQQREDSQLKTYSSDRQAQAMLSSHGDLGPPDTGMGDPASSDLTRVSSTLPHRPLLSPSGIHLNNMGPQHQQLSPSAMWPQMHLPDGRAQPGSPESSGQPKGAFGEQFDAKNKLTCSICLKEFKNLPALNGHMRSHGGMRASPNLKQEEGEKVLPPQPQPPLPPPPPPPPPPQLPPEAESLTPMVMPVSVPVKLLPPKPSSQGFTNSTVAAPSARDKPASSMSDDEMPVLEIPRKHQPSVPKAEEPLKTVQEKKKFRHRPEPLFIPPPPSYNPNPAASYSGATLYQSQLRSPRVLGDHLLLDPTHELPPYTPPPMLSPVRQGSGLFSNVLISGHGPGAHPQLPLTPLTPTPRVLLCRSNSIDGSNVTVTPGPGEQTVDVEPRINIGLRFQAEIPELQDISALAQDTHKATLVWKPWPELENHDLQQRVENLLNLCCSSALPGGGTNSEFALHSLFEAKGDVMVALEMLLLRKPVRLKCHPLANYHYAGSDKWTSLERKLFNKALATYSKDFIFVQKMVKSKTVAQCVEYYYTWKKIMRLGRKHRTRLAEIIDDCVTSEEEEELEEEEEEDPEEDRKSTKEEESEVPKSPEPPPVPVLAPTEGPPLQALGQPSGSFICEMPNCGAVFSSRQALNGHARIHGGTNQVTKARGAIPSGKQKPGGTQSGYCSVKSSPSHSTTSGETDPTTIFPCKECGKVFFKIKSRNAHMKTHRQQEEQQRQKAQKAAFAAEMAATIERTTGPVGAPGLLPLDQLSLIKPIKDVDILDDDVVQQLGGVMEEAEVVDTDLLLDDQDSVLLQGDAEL
UniProt P61201: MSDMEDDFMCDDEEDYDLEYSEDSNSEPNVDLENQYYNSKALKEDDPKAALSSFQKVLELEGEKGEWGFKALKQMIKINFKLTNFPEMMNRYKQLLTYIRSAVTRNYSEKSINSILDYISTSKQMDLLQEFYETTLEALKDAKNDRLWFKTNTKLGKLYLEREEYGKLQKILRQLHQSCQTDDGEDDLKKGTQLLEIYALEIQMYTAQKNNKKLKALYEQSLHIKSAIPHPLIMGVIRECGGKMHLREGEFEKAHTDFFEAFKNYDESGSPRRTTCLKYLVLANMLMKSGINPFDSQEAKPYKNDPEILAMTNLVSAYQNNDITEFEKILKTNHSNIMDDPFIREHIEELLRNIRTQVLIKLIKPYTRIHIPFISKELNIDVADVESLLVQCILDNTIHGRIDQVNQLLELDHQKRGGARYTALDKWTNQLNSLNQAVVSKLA
UniProt Q01650: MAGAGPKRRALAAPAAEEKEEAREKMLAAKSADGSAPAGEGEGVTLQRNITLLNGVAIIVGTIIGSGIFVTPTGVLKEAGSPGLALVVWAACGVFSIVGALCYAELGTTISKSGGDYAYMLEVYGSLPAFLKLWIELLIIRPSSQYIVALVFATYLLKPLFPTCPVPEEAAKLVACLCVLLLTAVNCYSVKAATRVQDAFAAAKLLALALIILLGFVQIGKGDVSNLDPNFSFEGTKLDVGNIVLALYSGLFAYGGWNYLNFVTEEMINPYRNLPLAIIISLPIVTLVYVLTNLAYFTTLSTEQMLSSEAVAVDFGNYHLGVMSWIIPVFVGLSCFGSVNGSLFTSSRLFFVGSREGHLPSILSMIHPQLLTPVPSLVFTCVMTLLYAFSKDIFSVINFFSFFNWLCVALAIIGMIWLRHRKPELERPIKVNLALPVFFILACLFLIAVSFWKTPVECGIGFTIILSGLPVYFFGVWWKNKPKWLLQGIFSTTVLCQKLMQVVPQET
UniProt P78406: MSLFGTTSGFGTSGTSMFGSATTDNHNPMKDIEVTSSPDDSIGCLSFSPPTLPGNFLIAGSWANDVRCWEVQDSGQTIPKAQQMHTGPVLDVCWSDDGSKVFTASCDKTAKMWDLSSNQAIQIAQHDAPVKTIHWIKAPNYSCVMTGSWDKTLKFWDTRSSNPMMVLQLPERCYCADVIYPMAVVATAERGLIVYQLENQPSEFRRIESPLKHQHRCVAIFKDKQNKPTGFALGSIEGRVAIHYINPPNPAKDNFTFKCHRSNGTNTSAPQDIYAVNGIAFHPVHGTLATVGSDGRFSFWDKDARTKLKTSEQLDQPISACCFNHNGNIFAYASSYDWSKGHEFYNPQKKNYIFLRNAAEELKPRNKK
UniProt Q02218: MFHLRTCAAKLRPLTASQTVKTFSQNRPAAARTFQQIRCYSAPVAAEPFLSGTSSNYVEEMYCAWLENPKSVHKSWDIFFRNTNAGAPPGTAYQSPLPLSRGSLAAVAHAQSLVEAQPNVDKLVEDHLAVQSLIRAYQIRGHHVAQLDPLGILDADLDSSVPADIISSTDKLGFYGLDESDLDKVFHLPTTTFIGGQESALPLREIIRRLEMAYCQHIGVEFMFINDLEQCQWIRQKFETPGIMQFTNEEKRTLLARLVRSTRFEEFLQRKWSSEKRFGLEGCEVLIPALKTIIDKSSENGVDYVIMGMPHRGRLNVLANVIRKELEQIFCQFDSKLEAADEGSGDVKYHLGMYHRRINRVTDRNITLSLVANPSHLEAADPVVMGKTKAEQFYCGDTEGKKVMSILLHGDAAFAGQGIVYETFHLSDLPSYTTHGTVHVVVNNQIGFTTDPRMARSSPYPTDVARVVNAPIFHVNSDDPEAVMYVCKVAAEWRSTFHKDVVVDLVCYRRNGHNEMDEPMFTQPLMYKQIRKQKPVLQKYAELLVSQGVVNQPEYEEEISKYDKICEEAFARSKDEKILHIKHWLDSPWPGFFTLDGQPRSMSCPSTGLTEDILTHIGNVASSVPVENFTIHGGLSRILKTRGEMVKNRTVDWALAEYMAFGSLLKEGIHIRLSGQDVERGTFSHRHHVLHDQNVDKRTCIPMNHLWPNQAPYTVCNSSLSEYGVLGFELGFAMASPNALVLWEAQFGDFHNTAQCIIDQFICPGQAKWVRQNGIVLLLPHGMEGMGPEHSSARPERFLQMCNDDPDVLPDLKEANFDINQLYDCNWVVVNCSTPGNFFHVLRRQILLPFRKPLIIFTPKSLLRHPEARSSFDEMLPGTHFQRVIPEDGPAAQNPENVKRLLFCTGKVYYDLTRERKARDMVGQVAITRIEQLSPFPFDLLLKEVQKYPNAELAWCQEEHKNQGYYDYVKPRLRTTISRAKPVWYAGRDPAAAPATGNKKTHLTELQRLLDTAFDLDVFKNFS
UniProt Q07666, whole entry: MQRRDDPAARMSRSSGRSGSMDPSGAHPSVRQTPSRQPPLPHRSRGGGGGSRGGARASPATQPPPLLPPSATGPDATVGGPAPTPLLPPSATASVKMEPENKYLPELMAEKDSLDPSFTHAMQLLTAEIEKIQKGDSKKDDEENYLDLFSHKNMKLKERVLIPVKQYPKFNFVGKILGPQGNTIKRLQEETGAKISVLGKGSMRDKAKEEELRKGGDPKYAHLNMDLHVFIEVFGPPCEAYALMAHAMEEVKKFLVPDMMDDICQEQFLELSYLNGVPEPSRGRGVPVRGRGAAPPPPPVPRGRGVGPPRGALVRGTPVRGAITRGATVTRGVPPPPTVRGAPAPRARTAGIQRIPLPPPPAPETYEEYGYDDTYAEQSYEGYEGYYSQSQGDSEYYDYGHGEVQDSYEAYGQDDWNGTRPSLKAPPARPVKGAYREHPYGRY
UniProt P56381: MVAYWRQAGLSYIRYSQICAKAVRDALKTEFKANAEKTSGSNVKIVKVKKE
UniProt P61764, whole entry: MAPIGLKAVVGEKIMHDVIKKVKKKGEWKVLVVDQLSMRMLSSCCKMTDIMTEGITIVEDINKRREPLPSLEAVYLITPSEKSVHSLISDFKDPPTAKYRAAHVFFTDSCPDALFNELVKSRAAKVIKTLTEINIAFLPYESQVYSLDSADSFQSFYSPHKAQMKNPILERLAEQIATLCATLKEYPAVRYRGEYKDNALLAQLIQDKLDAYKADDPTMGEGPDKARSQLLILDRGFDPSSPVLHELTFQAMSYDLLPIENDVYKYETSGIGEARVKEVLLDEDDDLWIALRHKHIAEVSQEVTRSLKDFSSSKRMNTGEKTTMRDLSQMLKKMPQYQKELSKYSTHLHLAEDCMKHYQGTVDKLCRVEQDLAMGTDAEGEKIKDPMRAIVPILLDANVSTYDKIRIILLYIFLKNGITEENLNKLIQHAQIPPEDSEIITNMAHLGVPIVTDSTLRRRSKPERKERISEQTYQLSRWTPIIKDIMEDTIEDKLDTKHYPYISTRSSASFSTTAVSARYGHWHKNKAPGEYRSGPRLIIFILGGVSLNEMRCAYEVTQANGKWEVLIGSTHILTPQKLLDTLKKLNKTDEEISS
UniProt P63313: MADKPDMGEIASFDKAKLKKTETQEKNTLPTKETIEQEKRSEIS
UniProt Q01167: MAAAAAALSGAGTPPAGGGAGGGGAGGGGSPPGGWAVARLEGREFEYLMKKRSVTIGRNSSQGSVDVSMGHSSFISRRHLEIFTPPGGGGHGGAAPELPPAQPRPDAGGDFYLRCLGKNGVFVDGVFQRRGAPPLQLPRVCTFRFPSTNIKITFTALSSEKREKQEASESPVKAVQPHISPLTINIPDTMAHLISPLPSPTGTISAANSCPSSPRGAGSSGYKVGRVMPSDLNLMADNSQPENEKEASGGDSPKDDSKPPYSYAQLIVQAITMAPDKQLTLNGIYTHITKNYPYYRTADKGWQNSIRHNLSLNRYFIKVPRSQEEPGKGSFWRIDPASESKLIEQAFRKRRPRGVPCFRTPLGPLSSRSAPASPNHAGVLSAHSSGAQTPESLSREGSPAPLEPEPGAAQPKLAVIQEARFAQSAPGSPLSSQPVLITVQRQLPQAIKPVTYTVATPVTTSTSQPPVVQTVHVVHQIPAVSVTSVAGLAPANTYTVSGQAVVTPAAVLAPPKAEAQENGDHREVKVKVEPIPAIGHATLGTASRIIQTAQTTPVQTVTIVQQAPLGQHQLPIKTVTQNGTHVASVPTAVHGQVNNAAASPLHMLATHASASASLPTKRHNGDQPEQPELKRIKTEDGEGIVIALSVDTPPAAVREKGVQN

Target	NP40-soluble protein abundance (concentration: 1mM)	NP40-soluble protein abundance (concentration: 2mM)	NP40-soluble protein abundance (concentration: 4mM)	NP40-soluble protein abundance (concentration: 6mM)	NP40-soluble protein abundance (concentration: 8mM)	NP40-soluble protein abundance (concentration: 10mM)
UniProt P61086 and related entries	0.979 ± 0.049	0.948 ± 0.032	0.962 ± 0.05	0.953 ± 0.025	0.975 ± 0.055	0.938 ± 0.066
UniProt Q00722 and related entries	1.02 ± 0.049	1.02 ± 0.05	1.04 ± 0.038	1.01 ± 0.018	1 ± 0.027	0.999 ± 0.052
UniProt P60891	0.815 ± 0.051	0.775 ± 0.07	0.79 ± 0.088	0.779 ± 0.039	0.795 ± 0.074	0.783 ± 0.14
KIF23 (UniProt Q02241)	1.07 ± 0.069	1.03 ± 0.034	1.095 ± 0.0069	1.07 ± 0.035	1.05 ± 0.029	1.07 ± 0.043
UniProt P84085	0.966 ± 0.024	0.905 ± 0.067	0.943 ± 0.025	0.962 ± 0.039	0.9679 ± 0.0089	0.94 ± 0.018
CKAP4 (UniProt Q07065)	1.03 ± 0.016	1.09 ± 0.035	1.08 ± 0.024	1.09 ± 0.031	1.06 ± 0.017	1.079 ± 0.0084
UniProt P61962	0.989 ± 0.013	0.913 ± 0.12	0.945 ± 0.042	0.932 ± 0.022	0.958 ± 0.013	0.898 ± 0.034
UniProt P60866 and related entries	0.932 ± 0.061	0.906 ± 0.058	0.883 ± 0.13	0.91 ± 0.04	0.889 ± 0.043	0.929 ± 0.13
UniProt Q04656 and related entries	1.02 ± 0.052	1.01 ± 0.032	1.01 ± 0.06	0.975 ± 0.05	0.982 ± 0.061	0.983 ± 0.025
Q05GC8 and related entries (UniProt Q96PN7+Q05GC8)	1.023 ± 0.0092	1.04 ± 0.033	0.9782 ± 0.0044	0.991 ± 0.014	0.971 ± 0.015	1.012 ± 0.0088
UniProt P61201 and related entries	0.998 ± 0.019	0.97 ± 0.026	0.956 ± 0.055	1.03 ± 0.045	1.01 ± 0.047	0.992 ± 0.081
UniProt P68371	1.13 ± 0.13	1.04 ± 0.037	1.1 ± 0.11	0.976 ± 0.023	1.05 ± 0.088	0.958 ± 0.078
UniProt P62263	1.03 ± 0.078	1.02 ± 0.029	0.993 ± 0.077	0.961 ± 0.077	0.908 ± 0.085	0.954 ± 0.11
STX17 (UniProt P56962)	0.966 ± 0.031	1.02 ± 0.11	0.973 ± 0.039	1.01 ± 0.08	1.01 ± 0.069	1.03 ± 0.042
UniProt P63220 and related entries	0.961 ± 0.06	0.995 ± 0.068	0.886 ± 0.086	0.882 ± 0.1	0.79 ± 0.056	0.851 ± 0.12
MRPS35 (UniProt P82673)	1.02 ± 0.086	1 ± 0.065	0.918 ± 0.079	0.92 ± 0.17	0.909 ± 0.12	0.898 ± 0.13
UniProt Q02224 and related entries	0.95 ± 0.033	0.958 ± 0.029	0.902 ± 0.04	0.975 ± 0.028	0.938 ± 0.061	0.932 ± 0.024
ALDH6A1 (UniProt Q02252)	0.983 ± 0.033	0.938 ± 0.029	0.961 ± 0.026	0.993 ± 0.041	0.99 ± 0.032	0.967 ± 0.024
UniProt Q03001 and related entries	1.01 ± 0.027	0.951 ± 0.055	1.02 ± 0.026	1 ± 0.05	1 ± 0.084	1.04 ± 0.082
UniProt Q05397 and related entries	0.993 ± 0.022	1.03 ± 0.043	0.978 ± 0.011	0.963 ± 0.025	0.983 ± 0.039	0.963 ± 0.026

Target	NP40-soluble protein abundance (concentration: 1mM)	NP40-soluble protein abundance (concentration: 2mM)	NP40-soluble protein abundance (concentration: 4mM)	NP40-soluble protein abundance (concentration: 6mM)	NP40-soluble protein abundance (concentration: 8mM)	NP40-soluble protein abundance (concentration: 10mM)
UniProt P62854	1 ± 0.035	0.978 ± 0.04	1 ± 0.038	0.949 ± 0.038	0.944 ± 0.012	0.9902 ± 0.0089
SLC7A5 (UniProt Q01650)	1 ± 0.021	1.01 ± 0.076	0.9696 ± 0.0028	0.9714 ± 0.0049	0.946 ± 0.042	0.943 ± 0.045
UniProt P62750	1 ± 0.038	1.01 ± 0.048	0.913 ± 0.052	0.844 ± 0.064	0.755 ± 0.07	0.886 ± 0.15
UniProt P78406 and related entries	1.03 ± 0.047	1.02 ± 0.011	1.06 ± 0.039	1.12 ± 0.017	1.16 ± 0.0096	1.2 ± 0.018
OGDH (UniProt Q02218)	1.01 ± 0.094	0.994 ± 0.12	1.02 ± 0.086	0.999 ± 0.1	1.01 ± 0.07	1.02 ± 0.1
YBX1 (UniProt P67809)	0.986 ± 0.088	1.22 ± 0.36	1.07 ± 0.12	1.23 ± 0.072	1.21 ± 0.031	1.34 ± 0.067
CDK5 (UniProt Q00535)	0.974 ± 0.033	0.946 ± 0.053	0.962 ± 0.013	0.961 ± 0.016	0.965 ± 0.034	0.954 ± 0.021
MPP1 (UniProt Q00013)	1.01 ± 0.015	0.964 ± 0.035	1.01 ± 0.028	0.978 ± 0.028	1.01 ± 0.048	0.986 ± 0.034
UniProt P63279	0.993 ± 0.076	1.01 ± 0.076	1.01 ± 0.1	1.04 ± 0.12	1.12 ± 0.07	1.07 ± 0.066
UniProt P62834	1.02 ± 0.015	0.958 ± 0.055	1.03 ± 0.022	0.991 ± 0.029	1.03 ± 0.02	1.027 ± 0.0062
UniProt P56282 and related entries	0.973 ± 0.03	0.933 ± 0.065	0.968 ± 0.026	0.952 ± 0.036	0.942 ± 0.041	0.951 ± 0.045
UniProt P61106	1.05 ± 0.033	1.03 ± 0.051	1.04 ± 0.04	1.05 ± 0.02	1.05 ± 0.02	1.054 ± 0.0088
UniProt P78527	0.9898 ± 0.0037	0.885 ± 0.13	0.966 ± 0.08	0.954 ± 0.048	1.01 ± 0.096	0.935 ± 0.12
CTBS (UniProt Q01459)	1 ± 0.023	1.05 ± 0.067	1.03 ± 0.017	1.09 ± 0.061	1.06 ± 0.051	1.07 ± 0.042
UniProt P78563 and related entries	1.02 ± 0.043	1.02 ± 0.026	1.04 ± 0.026	1.039 ± 0.0092	1.04 ± 0.017	1.08 ± 0.029
UniProt Q06787 and related entries	1.05 ± 0.04	1.11 ± 0.013	1.1 ± 0.02	1.22 ± 0.066	1.24 ± 0.016	1.36 ± 0.02
UniProt P62269	0.938 ± 0.059	0.929 ± 0.033	0.906 ± 0.081	0.876 ± 0.05	0.785 ± 0.034	0.861 ± 0.087
UniProt P62330	0.981 ± 0.088	0.917 ± 0.021	1.01 ± 0.024	0.971 ± 0.051	1.06 ± 0.049	0.982 ± 0.04
UniProt Q01432-5	0.991 ± 0.012	1.01 ± 0.014	1.02 ± 0.021	1 ± 0.03	0.9839 ± 0.0084	0.99 ± 0.04
UniProt P98155 and related entries	1.23 ± 0.11	1.059 ± 0.0093	1.05 ± 0.0055	1.02 ± 0.034	0.977 ± 0.014	1 ± 0.025

Target	NP40-soluble protein abundance (concentration: 1mM)	NP40-soluble protein abundance (concentration: 2mM)	NP40-soluble protein abundance (concentration: 4mM)	NP40-soluble protein abundance (concentration: 6mM)	NP40-soluble protein abundance (concentration: 8mM)	NP40-soluble protein abundance (concentration: 10mM)
KHDRBS1 (UniProt Q07666)	1.07 ± 0.037	1.16 ± 0.074	1.1 ± 0.03	1.13 ± 0.061	1.14 ± 0.073	1.16 ± 0.025
UniProt P56381	0.912 ± 0.049	1.03 ± 0.18	0.925 ± 0.053	1.1 ± 0.12	1.09 ± 0.1	1.15 ± 0.19
UniProt P82912 and related entries	1.02 ± 0.088	1.04 ± 0.073	1 ± 0.11	0.99 ± 0.12	0.994 ± 0.12	1.03 ± 0.14
UniProt Q01082 and related entries	1.05 ± 0.028	1.08 ± 0.035	1.05 ± 0.019	1.08 ± 0.06	1.05 ± 0.032	1.09 ± 0.056
UniProt P62487	1.1 ± 0.072	1.14 ± 0.053	1.07 ± 0.03	1.07 ± 0.093	1.01 ± 0.053	1.09 ± 0.1
UniProt P55809 and related entries	1.06 ± 0.016	1.03 ± 0.017	1.04 ± 0.023	1.02 ± 0.027	1.02 ± 0.038	1.01 ± 0.04
MARS (UniProt P56192)	0.962 ± 0.073	0.934 ± 0.095	0.946 ± 0.12	0.948 ± 0.13	0.928 ± 0.11	0.907 ± 0.14
TFAP4 (UniProt Q01664)	0.978 ± 0.061	1.03 ± 0.039	0.972 ± 0.017	0.957 ± 0.025	0.946 ± 0.013	0.958 ± 0.043
UniProt P61764 and related entries	0.982 ± 0.027	0.951 ± 0.056	0.9859 ± 0.0094	0.9765 ± 0.0046	0.998 ± 0.023	0.966 ± 0.017
UniProt P84022	0.996 ± 0.022	1.04 ± 0.037	1.03 ± 0.029	1.09 ± 0.026	1.05 ± 0.021	1.04 ± 0.055
RPL38 (UniProt P63173)	0.984 ± 0.013	0.9661 ± 0.0021	0.95 ± 0.039	0.919 ± 0.028	0.8314 ± 0.0071	1.003 ± 0.0099
FKBP1A (UniProt P62942)	1.01 ± 0.021	1.12 ± 0.027	1.02 ± 0.04	1.02 ± 0.039	0.994 ± 0.034	1.01 ± 0.064
UniProt P61081	1.01 ± 0.019	1.004 ± 0.0095	0.972 ± 0.025	0.984 ± 0.02	0.96 ± 0.028	0.964 ± 0.049
RPS27A (UniProt P62979)	0.997 ± 0.063	1.01 ± 0.018	0.928 ± 0.061	0.942 ± 0.056	0.941 ± 0.087	0.953 ± 0.079
UniProt P61927	1.05 ± 0.042	1.11 ± 0.071	1.07 ± 0.018	1.08 ± 0.045	1.01 ± 0.091	1.18 ± 0.079
YBEY (UniProt P58557)	1.03 ± 0.048	1.03 ± 0.018	1.03 ± 0.012	1.03 ± 0.011	0.9963 ± 0.0083	1.02 ± 0.018
UniProt P63313	1.05 ± 0.036	1.03 ± 0.11	1.01 ± 0.043	0.981 ± 0.039	0.949 ± 0.027	0.956 ± 0.06
UniProt P61289 and related entries	0.983 ± 0.064	0.955 ± 0.12	0.808 ± 0.23	0.886 ± 0.17	0.999 ± 0.037	0.968 ± 0.1
FOXK2 (UniProt Q01167)	0.991 ± 0.046	1 ± 0.057	0.999 ± 0.063	0.981 ± 0.033	0.961 ± 0.016	0.974 ± 0.057
RBM3 (UniProt P98179)	0.9777 ± 0.0027	0.994 ± 0.044	0.992 ± 0.021	0.985 ± 0.012	1.04 ± 0.022	1.03 ± 0.039

— the supplement of paper PMC6411743
